Some results were stated once for a whole list of compounds, not compound by compound.
Biological target: human serum albumin (HSA) (Homo sapiens, UniProt P02768)
Experiment: Isothermal scanning calorimetry (ITC) of ligand association with HSA
Assay type: binding
Conditions: ligand 400 μM injected into HSA 10 μM, PBS pH 7.4, 23° C.

Protein sequences, listed by entry. Tags and fused reporters are not part of them. Residues count along the entry.
UniProt P02768, 25-609: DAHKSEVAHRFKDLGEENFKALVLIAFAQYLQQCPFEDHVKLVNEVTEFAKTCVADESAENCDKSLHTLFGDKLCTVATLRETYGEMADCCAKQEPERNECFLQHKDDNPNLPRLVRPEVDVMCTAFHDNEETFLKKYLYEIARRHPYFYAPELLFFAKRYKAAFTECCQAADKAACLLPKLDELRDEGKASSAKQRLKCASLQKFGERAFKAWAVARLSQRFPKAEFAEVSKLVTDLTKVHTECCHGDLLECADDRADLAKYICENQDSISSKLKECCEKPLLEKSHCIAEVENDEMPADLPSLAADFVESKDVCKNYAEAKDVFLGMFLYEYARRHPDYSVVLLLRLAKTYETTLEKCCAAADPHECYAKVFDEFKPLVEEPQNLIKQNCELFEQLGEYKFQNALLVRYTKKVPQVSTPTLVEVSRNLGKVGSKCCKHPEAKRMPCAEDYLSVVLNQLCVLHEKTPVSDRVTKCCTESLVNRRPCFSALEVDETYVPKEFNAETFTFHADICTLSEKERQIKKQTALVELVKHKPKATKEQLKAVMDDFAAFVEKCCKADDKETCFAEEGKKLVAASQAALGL

O=C(O)CCCCCCCCCCSC1CC(=O)NC1=O (centres unmarked)
Association-constant to HSA K (Ka): 1.3 to 1.6×10^5 M^−1

O=C(O)CCCCCCCCCCCCCCCSC1CC(=O)NC1=O (centres unmarked) [MAL-S—(CH2)15—COOH, 16-(2,5-dioxopyrrolidin-3-ylthio)hexadecanoic acid]
Association-constant to HSA K (Ka): 1.3 to 1.6×10^5 M^−1
